# Where “and” joins values, the source holds several entries; their conditions need not be identical. Equal values may be shown once. The inconclusive results got no clear call from the source; some entries with a clear call stand among them for comparison. For part of these data: Potencies of inconclusive entries are doubtful fits and often do not repeat. Calls of active or inactive are those of the source. Unless noted, the call rests on the fitted dose curve.
# Protein sequences, listed by entry. Tags and fused reporters are not part of them. Lines headed by an entry give the natural chain unless they say otherwise; changes in a name come on top.
# UniProt P28223, whole entry, looked up: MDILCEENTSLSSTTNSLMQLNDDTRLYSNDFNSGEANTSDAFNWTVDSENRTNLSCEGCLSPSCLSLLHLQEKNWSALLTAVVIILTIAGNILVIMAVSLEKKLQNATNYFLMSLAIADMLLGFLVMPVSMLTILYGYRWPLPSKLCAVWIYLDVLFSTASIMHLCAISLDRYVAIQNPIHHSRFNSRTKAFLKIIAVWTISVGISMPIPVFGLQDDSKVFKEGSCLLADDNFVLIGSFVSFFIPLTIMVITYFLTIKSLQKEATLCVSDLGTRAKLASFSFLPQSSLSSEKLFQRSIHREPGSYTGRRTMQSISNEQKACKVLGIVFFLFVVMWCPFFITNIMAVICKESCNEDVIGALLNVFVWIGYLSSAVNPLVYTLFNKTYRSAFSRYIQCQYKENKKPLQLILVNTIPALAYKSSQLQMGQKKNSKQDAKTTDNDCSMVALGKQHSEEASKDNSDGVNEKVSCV
# UniProt P11229: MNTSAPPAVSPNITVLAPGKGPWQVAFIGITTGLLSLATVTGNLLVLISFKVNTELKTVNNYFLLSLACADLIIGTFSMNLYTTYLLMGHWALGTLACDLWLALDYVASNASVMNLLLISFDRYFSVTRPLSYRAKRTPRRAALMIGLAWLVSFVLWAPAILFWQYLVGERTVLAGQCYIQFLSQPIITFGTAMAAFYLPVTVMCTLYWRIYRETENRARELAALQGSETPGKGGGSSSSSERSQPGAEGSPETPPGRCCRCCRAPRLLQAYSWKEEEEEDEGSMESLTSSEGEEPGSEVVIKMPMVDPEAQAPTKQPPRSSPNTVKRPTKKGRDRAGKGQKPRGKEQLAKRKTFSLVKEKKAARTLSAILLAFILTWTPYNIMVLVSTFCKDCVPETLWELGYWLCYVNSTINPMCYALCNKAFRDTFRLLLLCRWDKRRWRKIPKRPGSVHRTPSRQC
# UniProt P14416, whole entry, looked up: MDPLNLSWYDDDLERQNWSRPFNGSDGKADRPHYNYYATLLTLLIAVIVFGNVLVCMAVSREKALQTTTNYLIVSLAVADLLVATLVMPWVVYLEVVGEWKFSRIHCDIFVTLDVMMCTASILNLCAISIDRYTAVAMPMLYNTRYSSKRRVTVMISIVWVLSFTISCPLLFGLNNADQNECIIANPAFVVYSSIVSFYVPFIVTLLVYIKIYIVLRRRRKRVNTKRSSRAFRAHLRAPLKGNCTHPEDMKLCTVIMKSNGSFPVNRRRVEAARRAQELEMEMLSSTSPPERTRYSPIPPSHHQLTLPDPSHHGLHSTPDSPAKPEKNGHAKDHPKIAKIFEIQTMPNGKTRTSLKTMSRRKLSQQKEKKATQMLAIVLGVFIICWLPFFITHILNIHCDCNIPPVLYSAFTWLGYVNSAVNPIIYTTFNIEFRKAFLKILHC
# Assays:
# [1] = p53 small molecule agonists, cell-based qHTS assay with human liver microsomes (AID 1963577); settings: HCT-116 p53RE-bla with human liver microsomes, ratio, 16 h; activation: at 66 µM (top of the series) unless noted; further: potency means the concentration at half of the fitted maximal effect;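 on activation: p53 response element beta-lactamase reporter cells with liver microsomes plus NADPH; on the % scale 0 is the no-effect control and ±100 the full control effect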
# Summary of the method: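 Fluorescence of the beta-lactamase reporter in p53RE-bla cells, detected with LiveBLAzer substrate (2 h, room temperature, dark), served as the read-out after 16 h compound exposure at 37 C with human liver microsomes and NADPH, each 0.5 mg/mL final.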
# [2] = target: 5-hydroxytryptamine receptor 2A (Homo sapiens) (UniProt P28223); assay: 5-hydroxytryptamine receptor 2A (HTR2A) small molecule antagonists, cell-based qHTS assay (AID 1963586); further: nearly all actives have a fitted effect of over 45% in size; further: potency means the concentration at half of the fitted maximal effect
# Summary of the method: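 Antagonist-mode intracellular calcium assay: DOI (4 nM) added after 5 min compound pre-incubation at room temperature to dye-loaded HTR2A-CHO cells. Fluorescence followed for 3 min, sampled every second.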
# [3] = cAMP Responsive Elements (CRE) small molecule antagonists, cell-based qHTS assay (AID 1963591; active means well fitted inhibition curve with a large enough effect in the signal ratio in the repeat runs, not every such curve was filed as active; inconclusive means weak or mixed curves, or effect the other way; the % refers to the signal ratio; further: potency means the concentration at half of the fitted maximal effect; on activity change, negative = inhibition: on the % scale 0 is the no-effect control and ±100 the full control effect); settings: CRE-bla HEK293T, beta-lactamase FRET ratio; activity change, negative = inhibition: at 92.4 µM (top of the series) unless noted
# Summary of the method: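 CRE-bla HEK293T cells plated 18 h, then given compound plus NKH477 at 0.25 uM final for 3 h at 37C. Beta-lactamase reporter read with LiveBLAzer B/G FRET substrate after 2 h at room temperature.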
# [4] = target: Beta-2 adrenergic receptor (Homo sapiens) (UniProt P07550); assay: Adrenergic beta2 receptor (ADRB2) small molecule agonists, cell-based qHTS assay (AID 1963593); settings: CHO-ADRB2 cells, cAMP HTRF, 30 min; further: potency means the concentration at half of the fitted maximal effect;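 on activation: CHO cells stably overexpressing human ADRB2; on the % scale 0 is the no-effect control and ±100 the full control effect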
# Summary of the method: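 CHO cells stably over-expressing ADRB2 were plated overnight at 37C, then dosed with compounds plus a stimulation mix containing 100uM IBMX and 25uM Ro-20-1724 for 0.5hr at room temperature. cAMP was measured by HTRF competition, 1hr.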
# [5] = target: Muscarinic acetylcholine receptor M1 (Homo sapiens) (UniProt P11229); assay: Cholinergic receptor muscarinic 1 (CHRM1) small molecule antagonists, cell-based qHTS assay (AID 1963588); further: nearly all actives have a fitted effect of over 40% in size; further: potency means the concentration at half of the fitted maximal effect
# Summary of the method: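 CHRM1-CHO calcium-flux assay, antagonist mode. Cells were seeded 18 h, dye-loaded 1 h at 37 C and given compound for 5 min at RT, then acetylcholine was added at 50nM. FDSS fluorescence was read 3 min; 15 concentrations, three runs.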
# [6] = p53 small molecule agonists, cell-based qHTS assay (AID 1963582; active means well fitted activation curve with a large enough effect in the signal ratio in the repeat runs, not every such curve was filed as active; inconclusive means weak or mixed curves; the % refers to the signal ratio; further: potency means the concentration at half of the fitted maximal effect); settings: HCT-116 p53RE-bla reporter, beta-lactamase FRET ratio, 16 h; activation: at 66 µM (top of the series) unless noted
# Summary of the method: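 p53RE-bla reporter cells, compounds added in DMSO after 5 h plating, incubated 16 h at 37 C. Beta-lactamase read via 2 h room-temperature LiveBLAzer B/G FRET substrate, fluorescence intensity.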
# [7] = target: D(2) dopamine receptor (Homo sapiens) (UniProt P14416); assay: Dopamine D2 receptor (DRD2) small molecule antagonists, cell-based qHTS assay (AID 1963595; active means well fitted inhibition curve with a large enough effect in the signal ratio in the repeat runs, with a control signal flat; inconclusive means weak or mixed curves, or effect the other way; the % refers to the signal ratio; further: on the % scale 0 is the no-effect control and ±100 the full control effect); settings: HEK293-DRD2 cAMP HTRF antagonist mode; activity change, negative = inhibition: at 92.4 µM (top of the series) unless noted
# Summary of the method: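 HTRF cAMP read-out at 665 and 620 nm emission (340 nm excitation). Antagonist mode: compounds were tested against 12 nM quinpirole in DRD2-HEK293 cells, with 200 nM NKH477 raising cAMP and 0.1 mM Ro20-1724 blocking its breakdown.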
# [8] = cAMP Responsive Elements (CRE) small molecule agonists, cell-based qHTS assay (AID 1963590); settings: CRE-bla HEK293T, beta-lactamase FRET ratio, 3 h; activation: at 92.4 µM (top of the series) unless noted; further: potency means the concentration at half of the fitted maximal effect
# Summary of the method: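 CRE-bla HEK 293T cells, 2,000/well in DMEM with 10% dialyzed FBS and 25 mM HEPES, pre-incubated 18 h at 37 C, then exposed to compound 3 h at 37 C. Beta-lactamase reporter read with LiveBLAzer B/G FRET substrate after 2 h at room temperature.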
# [9] = target: Beta-2 adrenergic receptor (Homo sapiens) (UniProt P07550); assay: Adrenergic beta2 receptor (ADRB2) small molecule antagonists, cell-based qHTS assay (AID 1963592); settings: CHO-ADRB2 cells, isoproterenol-stimulated cAMP HTRF ratio, 0.5 h; activity change, negative = inhibition: at 92.4 µM (top of the series) unless noted; further: nearly all actives have a fitted effect of over 50% in size; further: potency means the concentration at half of the fitted maximal effect
# Summary of the method: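 Cells (CHO, stable ADRB2 overexpression) incubated 18-20hr at 37C; compounds added from DMSO; agonist mix (1nM isoproterenol, 100uM IBMX, 25uM Ro-20-1724) added; 0.5hr RT; d2-cAMP and anti-cAMP-cryptate added; 1hr RT; 665/615 nm read.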
# [10] = target: D(2) dopamine receptor (Homo sapiens) (UniProt P14416); assay: Dopamine D2 receptor (DRD2) small molecule agonists, cell-based qHTS assay (AID 1963594); settings: HEK293-DRD2 cAMP HTRF, agonist mode, 30 min; activation: at 92.4 µM (top of the series) unless noted; further: nearly all actives have a fitted effect of over 35% in size; further: potency means the concentration at half of the fitted maximal effect
# Summary of the method: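 HEK293 cells stably expressing DRD2 were cultured 24 h at 37 C, then given Ro20-1724 (0.1 mM final) and compounds for 10 min at room temperature. NKH477 (200nM) was then added for 30 min. cAMP was read by HTRF.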
# [11] = target: 5-hydroxytryptamine receptor 2A (Homo sapiens) (UniProt P28223); assay: 5-hydroxytryptamine receptor 2A (HTR2A) small molecule agonists, cell-based qHTS assay (AID 1963587); further: potency means the concentration at half of the fitted maximal effect; nearly all actives have a fitted effect of over 30% in size
# Summary of the method: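 HTR2A-CHO cells, plated 18 h at 37 C/5% CO2, dye-loaded 1 h at 37 C; compounds in DMSO added by pin tool (agonist mode). Intracellular calcium flux read as kinetic fluorescence on FDSS over 2 min at 1 s intervals.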
# [12] = activation: at 92.4 µM (top of the series) unless noted
compound,measurement,setting,value
Cc1ccccc1C(=O)Nc1ccc(C(=O)N2CCCC(O)c3cc(Cl)ccc32)c(C)c1 (stereo not given),Potency,[1],"inconclusive: 9.98 µM [rising, full curve]"
same,Potency,[2],"inconclusive: 0.0021 µM [inhibitor, full curve, poor fit]"
same,Potency,[3],inactive
same,activation,[4]; [12],inconclusive: 10.8% [at 42.5 µM]
Clc1ccc(Nc2nnc(Cc3ccncc3)c3ccccc23)cc1,activation,[1],inconclusive: -22.8% [at 30.3 µM]
same,Potency,[2],active: 18.3 µM
same,activation,[4]; [12],inconclusive: -34% [at 42.5 µM]
NC(=O)OCC(COC(N)=O)c1ccccc1,Potency,[1],inconclusive: 22.3 µM [fluorescent]
same,Potency,[2],"inconclusive: 5.16 µM [inhibitor, single point]"
same,Potency,[3],inactive
CC/C(C)=N\O[Si](C)(O/N=C(\C)CC)O/N=C(\C)CC,Potency,[1],"inconclusive: 46.4 µM [activator, single point]"
same,Potency,[2],"inconclusive: 0.0096 µM [inhibitor, full curve, poor fit]"
same,Potency,[5],active: 3.39 µM
same,Potency,[4]; [12],"inconclusive: 0.247 µM [inhibitor, partial curve, poor fit]"
Cc1ccc(C(C)C)c(O)c1,activation,[1],inconclusive: 17.8% [at 30.3 µM]
same,Potency,[6],inactive
same,Potency,[4]; [12],"inconclusive: 0.611 µM [inhibitor, single point]"
same,activation,[4]; [12],inconclusive: 8.55% [at 42.5 µM]
same,"activity change, negative = inhibition",[7],inconclusive: -0.0552%
Cc1cc(N)no1,Potency,[1],inactive
same,Potency,[6],inactive
same,activation,[4]; [12],inconclusive: 46.7%
CCOC(=O)Nc1ccc2c(c1)N(C(=O)CCN1CCOCC1)c1ccccc1S2,Potency,[1],"inconclusive: 11.2 µM [fluorescent, partial curve]"
same,Potency,[2],"inconclusive: 0.0918 µM [inhibitor, full curve, poor fit]"
same,Potency,[5],active: 0.918 µM
same,Potency,[3],"inconclusive: 6.68 µM [activator, full curve]"
same,Potency,[4]; [12],inactive
CCOC(=N)CC(=O)OCC,Potency,[1],inactive
same,Potency,[6],"inconclusive: 51.3 µM [rising, single point]"
same,activation,[4]; [12],inconclusive: 35.4%
CCCN1C[C@H](CSC)C[C@@H]2c3cccc4[nH]cc(c34)C[C@H]21,Potency,[1],inactive
same,Potency,[8],inconclusive: 29.8 µM [fluorescent]
same,Potency,[3],inconclusive: 26.6 µM [fluorescent]
same,Potency,[4]; [12],"inconclusive: 15 µM [inhibitor, partial curve, poor fit]"
CCCC(=O)Nc1ccc(O)c(C(C)=O)c1,Potency,[1],inactive
same,Potency,[8],inactive
same,Potency,[3],inactive
same,activation,[4]; [12],inconclusive: -19.3% [at 42.5 µM]
CC1CC(=O)NN=C1c1ccc(NCC(C)(C)NCC(O)COc2cc(Cl)ccc2C#N)cc1 (stereo not given),Potency,[1],"inconclusive: 22.3 µM [fluorescent, partial curve]"
same,Potency,[8],"inconclusive: 29.8 µM [activator, partial curve]"
same,Potency,[3],"inconclusive: 15 µM [activator, partial curve]"
same,Potency,[9],active: 5.31 µM
same,Potency,[4]; [12],"inconclusive: 0.15 µM [inhibitor, full curve, poor fit]"
COC(=O)CCCCC(=O)OC,Potency,[1],inconclusive: 45.8 µM [fluorescent]
same,Potency,[2],"inconclusive: 4.21 µM [inhibitor, single point]"
same,Potency,[10],inconclusive: 0.0087 µM
OCCc1ccccc1,activation,[1],inconclusive: -6.23% [at 30.3 µM]
same,Potency,[2],inactive
same,activation,[4]; [12],inconclusive: -6.4% [at 42.5 µM]
CC(=O)c1c(C)cc(C(C)(C)C)cc1C,Potency,[1],inactive
same,Potency,[11],"inconclusive: 49 µM [activator, partial curve, poor fit]"
same,Potency,[3],inactive
same,Potency,[4]; [12],inactive
C[C@H]1C[C@H]2[C@@H]3CCC4=CC(=O)C=C[C@]4(C)[C@@]3(Cl)[C@@H](O)C[C@]2(C)[C@@]1(O)C(=O)CO,Potency,[1],"inconclusive: 22.3 µM [rising, single point]"
same,Potency,[8],"inconclusive: 29.8 µM [rising, partial curve]"
same,Potency,[3],"inconclusive: 26.6 µM [fluorescent, partial curve, poor fit]"
same,Potency,[4]; [12],"inconclusive: 11.9 µM [inhibitor, single point]"
CC(C)(Oc1ccc(C2CC2(Cl)Cl)cc1)C(=O)O (stereo not given),Potency,[1],inactive
same,Potency,[8],inconclusive: 65.9 µM
same,"activity change, negative = inhibition",[3],inconclusive: -3.68%
same,activation,[4]; [12],inconclusive: 16.5% and inconclusive: -18.7%
same,activation,[4]; at 42.5 µM (top of the series),inactive: 3.34%
FC1(F)C(F)(F)C(F)(F)C2(F)C(F)(F)C(F)(F)C(F)(F)C(F)(F)C2(F)C1(F)F (stereo not given),activation,[1],inconclusive: 17% [at 30.3 µM]
same,Potency,[8],inactive
same,Potency,[9],inactive
same,activation,[10],inconclusive: 3.28% [at 42.5 µM]
C[C@@H]1C[C@H]2[C@@H]3CCC4=CC(=O)C=C[C@]4(C)[C@@]3(Cl)[C@@H](O)C[C@]2(C)[C@@]1(OC(=O)c1ccco1)C(=O)CCl,Potency,[1],"inconclusive: 19.9 µM [rising, partial curve]"
same,Potency,[8],"inconclusive: 18.8 µM [rising, partial curve, poor fit]"
same,activation,[4]; [12],inconclusive: -21% [at 42.5 µM]
CCCCC(CC)COC(=O)CCCCC(=O)OCc1ccccc1 (stereo not given),Potency,[1],"inconclusive: 18.2 µM [fluorescent, full curve]"
same,Potency,[8],inactive
same,Potency,[3],inactive
CCCCCC/C=C\CCCCCCCC(=O)O,Potency,[1],"inconclusive: 40.8 µM [fluorescent, single point]"
same,Potency,[5],inactive
same,Potency,[8],inactive

# Laid out differently: entries from further up.
compound | measurement | setting | value
CCCN1C[C@H](CSC)C[C@@H]2c3cccc4[nH]cc(c34)C[C@H]21 | Potency | [8] | inconclusive: 29.8 µM [fluorescent]
same | Potency | [3] | inconclusive: 26.6 µM [fluorescent]
same | Potency | [4]; [12] | inconclusive: 15 µM [inhibitor, partial curve, poor fit]
CCCC(=O)Nc1ccc(O)c(C(C)=O)c1 | Potency | [1] | inactive
same | Potency | [8] | inactive
same | Potency | [3] | inactive
same | activation | [4]; [12] | inconclusive: -19.3% [at 42.5 µM]
CC1CC(=O)NN=C1c1ccc(NCC(C)(C)NCC(O)COc2cc(Cl)ccc2C#N)cc1 (stereo not given) | Potency | [1] | inconclusive: 22.3 µM [fluorescent, partial curve]
same | Potency | [8] | inconclusive: 29.8 µM [activator, partial curve]
same | Potency | [3] | inconclusive: 15 µM [activator, partial curve]
same | Potency | [9] | active: 5.31 µM
same | Potency | [4]; [12] | inconclusive: 0.15 µM [inhibitor, full curve, poor fit]
COC(=O)CCCCC(=O)OC | Potency | [1] | inconclusive: 45.8 µM [fluorescent]
same | Potency | [2] | inconclusive: 4.21 µM [inhibitor, single point]
same | Potency | [10] | inconclusive: 0.0087 µM
OCCc1ccccc1 | activation | [1] | inconclusive: -6.23% [at 30.3 µM]
same | Potency | [2] | inactive
same | activation | [4]; [12] | inconclusive: -6.4% [at 42.5 µM]
CC(=O)c1c(C)cc(C(C)(C)C)cc1C | Potency | [1] | inactive
same | Potency | [11] | inconclusive: 49 µM [activator, partial curve, poor fit]
same | Potency | [3] | inactive

# — PubChem BioAssay (Tox21)
